These are yes or no findings as the source states them, for the method shown. In cells and extracts the contact can be indirect. A yes stands for co-enrichment or nearness to the bait. Other partners may have been found. Where a sequence is shown, tags or fusion partners need not be part of it.
Biological target: T1, Flag-tagged human GLDC (glycine decarboxylase), wild type (human) (UniProt P23378)
T1 sequence (chain, phosphotyrosine at Y993 and Y1008 after EGF stimulation or SRC overexpression): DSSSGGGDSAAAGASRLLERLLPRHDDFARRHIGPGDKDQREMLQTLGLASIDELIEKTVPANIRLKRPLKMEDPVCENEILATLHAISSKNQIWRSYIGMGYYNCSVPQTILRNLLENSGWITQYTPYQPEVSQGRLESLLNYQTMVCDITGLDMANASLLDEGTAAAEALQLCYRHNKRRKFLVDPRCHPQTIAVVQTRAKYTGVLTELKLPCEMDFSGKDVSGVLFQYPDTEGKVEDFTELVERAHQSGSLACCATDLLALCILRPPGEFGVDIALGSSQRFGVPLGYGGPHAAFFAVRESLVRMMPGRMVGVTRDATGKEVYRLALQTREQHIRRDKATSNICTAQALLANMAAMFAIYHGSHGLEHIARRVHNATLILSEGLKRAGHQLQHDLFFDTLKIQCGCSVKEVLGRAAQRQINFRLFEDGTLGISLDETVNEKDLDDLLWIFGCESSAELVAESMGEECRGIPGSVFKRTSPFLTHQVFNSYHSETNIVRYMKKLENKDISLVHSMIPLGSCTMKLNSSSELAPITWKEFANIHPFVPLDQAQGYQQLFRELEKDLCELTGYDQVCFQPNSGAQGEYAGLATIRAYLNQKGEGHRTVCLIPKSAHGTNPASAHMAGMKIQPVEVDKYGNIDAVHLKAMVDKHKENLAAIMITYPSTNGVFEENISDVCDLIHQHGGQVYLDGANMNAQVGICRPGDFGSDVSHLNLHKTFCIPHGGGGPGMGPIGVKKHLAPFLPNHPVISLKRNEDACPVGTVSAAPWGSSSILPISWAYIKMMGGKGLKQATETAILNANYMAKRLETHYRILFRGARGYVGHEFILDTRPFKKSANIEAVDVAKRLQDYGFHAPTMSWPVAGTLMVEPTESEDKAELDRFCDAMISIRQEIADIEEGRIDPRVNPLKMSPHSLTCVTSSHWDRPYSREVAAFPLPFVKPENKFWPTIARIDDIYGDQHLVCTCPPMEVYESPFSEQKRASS
Test: affinity purification with mass spectrometry; HEK293/EGFR cells transfected with Flag-tagged human GLDC for 24 h, with or without EGF 100 ng/ml for 6 h; anti-Flag immunoprecipitation; compared with mock

Protein sequences, listed by entry. Tags and fused reporters are not part of them.
UniProt Q9NPF5: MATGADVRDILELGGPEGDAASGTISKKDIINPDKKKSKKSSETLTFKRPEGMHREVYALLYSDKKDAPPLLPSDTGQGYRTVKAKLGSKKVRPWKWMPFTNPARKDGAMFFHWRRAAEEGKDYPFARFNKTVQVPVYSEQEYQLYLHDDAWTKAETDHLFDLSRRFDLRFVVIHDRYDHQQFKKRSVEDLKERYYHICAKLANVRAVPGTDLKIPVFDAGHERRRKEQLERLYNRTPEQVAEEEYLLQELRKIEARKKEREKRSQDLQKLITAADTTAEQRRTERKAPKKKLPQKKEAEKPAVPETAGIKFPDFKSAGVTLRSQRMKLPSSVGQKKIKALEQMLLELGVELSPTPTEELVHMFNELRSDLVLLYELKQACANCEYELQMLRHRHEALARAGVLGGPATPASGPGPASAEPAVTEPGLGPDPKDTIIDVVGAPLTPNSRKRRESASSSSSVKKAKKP
UniProt Q969G3: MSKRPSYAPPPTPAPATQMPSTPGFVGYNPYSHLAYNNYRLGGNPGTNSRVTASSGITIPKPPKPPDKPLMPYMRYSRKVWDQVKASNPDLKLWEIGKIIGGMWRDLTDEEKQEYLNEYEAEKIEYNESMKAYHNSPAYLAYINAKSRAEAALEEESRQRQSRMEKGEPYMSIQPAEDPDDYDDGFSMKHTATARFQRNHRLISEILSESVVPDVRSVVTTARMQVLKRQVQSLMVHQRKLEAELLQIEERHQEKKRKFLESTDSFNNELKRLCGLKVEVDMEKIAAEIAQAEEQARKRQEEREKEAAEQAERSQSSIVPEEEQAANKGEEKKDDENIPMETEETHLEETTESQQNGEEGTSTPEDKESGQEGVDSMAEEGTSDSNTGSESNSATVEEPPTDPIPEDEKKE

| binding | Substance |
| --- | --- |
| binds | DMAP1, endogenous (from UniProt Q9NPF5 1-467) |
| binds | SMARCE1, endogenous (from UniProt Q969G3 1-411) |
